# Assay results: PubChem BioAssay AID493014 (National Center for Advancing Translational Sciences (NCATS), 2011)
# The other results are listed elsewhere or left out. Further columns of the screen follow, without active or inactive calls. Compounds called inactive in the main read-out are mostly missing here. Potencies come from curve fits of mixed quality, noted in brackets.
# Assay: qHTS Assay to Find Inhibitors of Chronic Active B-Cell Receptor Signaling
# Conditions: ABC-DLBCL IkBa-CBG/CBR reporter, luminescence ratio (green luciferase fused to IkBa over red control in TMD8 lymphoma cells), 4 h
# How it was run: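 Concentration-response series (up to 46 uM) were applied to TMD8 dual-reporter cells for 4 h at 37C with doxycycline. Green/red ratio, after filter-overlap correction, defined %Activity; red signal alone was normalised to basal cells and zero luminescence.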
# [1] = measured here: CBR red luminescence, cell number
# [2] = measured here: IkBa-CBG green luminescence
SMILES,AC50 [1],AC50 [2]
Cc1ccc(/C=C/C(=O)Nc2nnc(C)s2)o1,"0.82 µM [rising, partial curve, poor fit]",–
Cc1cc(C)nc(SCC(=O)c2ccc(F)c(C)c2)n1,"3.98 µM [rising, full curve, poor fit]",–
COc1cccc2cc(C(=O)N3CCCCC3C)c(=O)oc12 (stereo unspecified),"29.1 µM [rising, single point]",–
O=C(CSc1ccccc1)Nc1ccc(N2CCOCC2)cc1,"18.4 µM [rising, single point]",–
Cc1cc(C)c(N)c(C(=O)O)c1,"14.1 µM [rising, single point]",–
CC(C)/C=N/Nc1nc2c(c(=O)n(C)c(=O)n2C)n1C,"35.5 µM [falling, single point]",–
COC(=O)N/N=C/c1cccc(OCCSc2ccc(Cl)cc2)c1,"29.1 µM [falling, single point]",–
CC12CNCC(C)(CN(C3(O)C(=O)Nc4ccc(Br)cc43)C1)C2=O (stereo unspecified),–,"25.1 µM [falling, single point]"
O=C(Nc1ccc2c(c1)CCC2)Nc1ccccc1F,"2.24 µM [falling, partial curve]",–
O=C(NC1CCN(Cc2ccccc2)CC1)c1ccc2c(c1)OCCCO2,"22.4 µM [rising, single point]",–
O=C(NCCCCc1ccccc1)c1ccccc1Cl,"7.08 µM [falling, partial curve, poor fit]",–
COC(=O)c1cc(NC(=O)COC(=O)CCc2nc3ccccc3c(=O)[nH]2)cc(C(=O)OC)c1,"0.731 µM [rising, full curve, poor fit]",–
O=C(NCC1CCCO1)c1cccc(Oc2ccc([N+](=O)[O-])cc2Cl)c1 (stereo unspecified),"5.62 µM [falling, partial curve]",–
COc1cccc(-c2ncc3ccccc3c2COC(=O)c2cccs2)c1,"5.17 µM [falling, partial curve]",–
CCOC(=O)CC(NC(=O)c1ccco1)c1ccc(C)cc1 (stereo unspecified),"35.5 µM [rising, single point]",–
O=C(CNC(=O)c1cccs1)c1ccc(Cl)cc1,"11.2 µM [falling, partial curve, poor fit]",–
C#CCOCCOCCOCCNc1nc(N2CCN(C(=O)CCCCCCCCCCNC(=O)[C@@H](CCC(=O)O)n3cc(CCCCCN)nn3)CC2)nc(N2CCN(C(=O)CCCCCCCCCCNC(=O)[C@H](CO)n3cc(CCCSC)nn3)CC2)n1,"4.11 µM [rising, partial curve, poor fit]",–
Cn1c(=O)n(C)c2cc(NS(=O)(=O)c3ccc4c(c3)CCCC4)ccc21,"20.6 µM [rising, partial curve]","20.6 µM [falling, single point]"
O=C(c1cccc(Br)c1)c1conc1C(=O)c1ccco1,"29.1 µM [rising, single point]",–
CCOC(=O)c1ccc(NC(=O)CN2CCN(c3ccccc3)CC2)cc1,"0.146 µM [rising, full curve, poor fit]",–
COc1ccc2cc(S(=O)(=O)N3CCCC3)ccc2c1,"35.5 µM [rising, single point]",–

# Reformatted tab-delimited: two of the compounds above
SMILES	AC50 [1]	AC50 [2]
O=C(c1cccc(Br)c1)c1conc1C(=O)c1ccco1	29.1 µM [rising, single point]	–
CCOC(=O)c1ccc(NC(=O)CN2CCN(c3ccccc3)CC2)cc1	0.146 µM [rising, full curve, poor fit]	–

# (next part)

SMILES,AC50 [1],AC50 [2]
COc1ccc(OC)c(-c2cc(C(=O)NCCCn3ccnc3)no2)c1,–,"11.2 µM [falling, partial curve, poor fit]"
O=C1NC(=O)C(c2ccccc2[N+](=O)[O-])=C1Nc1ccc(O)c(Cl)c1,"11.2 µM [falling, single point]",–
O=C(/C=C/c1ccco1)Nc1scc(-c2ccccc2)c1C(=O)O,"10 µM [falling, partial curve]",–
CC(C)(C)C(=O)Nc1ccc(S(=O)(=O)Nc2nccs2)cc1,"11.2 µM [rising, single point]",–
COc1cccc(NC(=O)CSc2nc(C3CC3)nc3ccccc23)c1,"2 µM [falling, partial curve, poor fit]",–
O=C(Nc1ccc2c(c1)nc1n2CCOC1)c1ccccc1,"10 µM [falling, partial curve, poor fit]",–
Cc1ccc(N(CC(=O)NCCc2ccc(F)cc2)S(=O)(=O)c2ccc(Cl)c([N+](=O)[O-])c2)c(C)c1,"20.6 µM [falling, single point]",–
O=C1CC(N2CCN(S(=O)(=O)c3ccccc3)CC2)C(=O)N1c1ccccc1 (stereo unspecified),"6.31 µM [falling, full curve, poor fit]",–
O=C(CSc1nc2ccccc2c(=O)n1-c1ccccc1)N/N=C/C=C/c1ccccc1[N+](=O)[O-],"11.2 µM [rising, partial curve, poor fit]",–
COc1ccc(OC)c(C(=O)CSc2nnc(Cc3cccs3)n2CCc2ccccc2)c1,"11.2 µM [falling, partial curve]",–
COCCN(CCOC)C(=O)c1cc2c(=O)n3ccccc3nc2s1,"3.55 µM [rising, full curve]",–
Cc1cc(C(=O)CSc2nc(N)cc(=O)[nH]2)c(C)n1CCc1ccc(Cl)cc1,"8.2 µM [rising, partial curve]",–
O=C(CC1CCCCC1)NCc1ccccc1,"0.224 µM [rising, full curve, poor fit]",–
CCOc1ccc(-c2nc(CSCC(=O)N3CCN(c4cccc(C(F)(F)F)c4)CC3)c(C)o2)cc1,"3.55 µM [rising, partial curve]",–
C=CCN1C(=O)N/C(=C/c2ccc(N3CCOCC3)o2)C1=O,"7.31 µM [falling, partial curve]",–
Cc1cc(C)nc(SCc2ccc(C(=O)N/N=C3\CCCC(=O)C3)cc2)n1,–,"8.91 µM [falling, partial curve, poor fit]"
Cc1[nH]n(-c2ccccc2)c(=O)c1C(=O)c1ccc(Cl)cc1,"15.8 µM [falling, partial curve]",–
COC(=O)Cn1c(O)c(N=NC(=O)c2ccc3c(c2)OCO3)c2ccccc21,"22.4 µM [falling, single point]",–
c1ccc(-c2nc3c([nH]2)CCc2nonc2-3)cc1,"1.78 µM [falling, partial curve, poor fit]","4.47 µM [rising, full curve, poor fit]"
CCN(CC)CCN1C(=O)/C(=C\c2ccc(Cl)c([N+](=O)[O-])c2)SC1=Nc1ccc(OC)cc1,"35.5 µM [falling, partial curve, poor fit]",–
CCn1c(=O)oc2cc(NC(=O)CCl)ccc21,"25.1 µM [falling, single point]",–

# Arranged by length of the SMILES (descending): 3 of the compounds above.
SMILES,AC50 [1],AC50 [2]
O=C(CSc1nc2ccccc2c(=O)n1-c1ccccc1)N/N=C/C=C/c1ccccc1[N+](=O)[O-],"11.2 µM [rising, partial curve, poor fit]",–
CCOc1ccc(-c2nc(CSCC(=O)N3CCN(c4cccc(C(F)(F)F)c4)CC3)c(C)o2)cc1,"3.55 µM [rising, partial curve]",–
O=C(CC1CCCCC1)NCc1ccccc1,"0.224 µM [rising, full curve, poor fit]",–

# More entries follow:

SMILES,AC50 [1],AC50 [2]
O=C(c1cc(Br)c(Br)s1)N1CCN(C/C=C/c2ccccc2)CC1,"25.9 µM [falling, single point]",–
CC1=C/C(=N\NC(=O)c2ccccc2)CC1,"14.6 µM [falling, partial curve]",–
Cc1csc(NC(=O)C2CC(=O)N(c3ccc(C)c(C)c3)C2)n1 (stereo unspecified),"8.91 µM [falling, partial curve, poor fit]",–
CC(C)(C)c1ccc(C(=O)N/C(N)=N/c2nc3ccccc3o2)cc1,"16.4 µM [rising, single point]",–
CCN1CCN(C(=O)c2nn(-c3ccc(C)cc3)c(=O)c3c2c2ccccc2n3C)CC1,"29.1 µM [rising, single point]",–
Cc1nc(C)c(-c2csc(Nc3ccc(F)cc3)n2)s1,"5.62 µM [rising, partial curve, poor fit]",–
OC1CCCN(Cc2nc(Cc3ccccc3Cl)no2)C1 (stereo unspecified),"35.5 µM [rising, single point]",–
COc1ccc2c(CCNC(N)=S)c[nH]c2c1,"5.62 µM [rising, single point]",–
O=C(Cc1n[nH]c(=O)c2ccccc12)OCC(=O)c1ccccc1,"2.31 µM [rising, partial curve]",–
NS(=O)(=O)c1ccc(NC(=O)CSc2n[nH]c(=O)n2C2CC2)cc1,"25.9 µM [rising, partial curve, poor fit]",–
O=C(NCCN1CCN(C(=O)Nc2ccccc2)CC1)Nc1ccccc1,"23.1 µM [falling, single point]",–
CCOc1ccc(C(=O)N/N=C/c2c(C)[nH]c(=O)[nH]c2=O)cc1,"10 µM [falling, partial curve, poor fit]",–
O=C(Cc1n[nH]c(=O)c2ccccc12)OCC(=O)N(Cc1ccccc1)Cc1ccccc1,"35.5 µM [falling, single point]",–
CCc1cccc(C)c1NC(=O)C1CCCN1C(=O)NCc1ccccc1 (stereo unspecified),"0.501 µM [rising, full curve, poor fit]",–
CC(C)(C)SCCNS(=O)(=O)c1ccccc1,"0.708 µM [falling, partial curve, poor fit]",–
COc1ccc(C2=NS(=O)(=O)N(C)C(C(=O)Nc3cc(C)ccc3O)=C2)cc1OC,"6.31 µM [falling, partial curve, poor fit]",–
CCCCCCn1c(C(C)O)nc2ccccc21 (stereo unspecified),"20.6 µM [falling, single point]",–
CC(=O)Nc1ccc(S(=O)(=O)c2cc(O)ccc2O)cc1,"22.4 µM [rising, partial curve, poor fit]",–
C=CCc1ccccc1OCCCCN1CCCC1,"23.1 µM [rising, partial curve, poor fit]","20.6 µM [falling, partial curve, poor fit]"
COc1ccc(NC(=S)NCc2ccc3c(c2)cc(C)n3C)cc1,"23.1 µM [rising, partial curve, poor fit]",–
CCOc1ccccc1NC(=O)C1CCCN(C(=O)NCc2ccccc2)C1 (stereo unspecified),"0.82 µM [rising, full curve, poor fit]",–
